Source: US20230011168A1, “Bio-Chips and Production Method Thereof” (China Medical University, priority 2021, published 2023)
For at least one compound, name, drawing or mass did not settle the structure.

Tested on: GR10 lung cancer cells
Assay: Cancer cell survival test of target drugs, GR10
Type: cell-based

## CN(C)C/C=C/C(=O)Nc1cc2c(Nc3ccc(F)c(Cl)c3)ncnc2cc1O[C@H]1CCOC1 [afatinib, Afatinib]
  survival rate of cancer cells at high concentrations: decreased significantly
